The list shows a part of the results. Further columns of the screen follow, without active or inactive calls. Compounds called inactive in the main read-out are mostly missing here. Words in brackets tell the shape of the fitted curve; partial curves, single points and poor fits give uncertain potencies.
Experiment: qHTS Assay for Lipid Storage Modulators in Drosophila S3 Cells;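 on cell number change: cells counted by Cell Tracker Red CMTPX staining in the red channel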
Details: BODIPY lipid droplet fluorescence, 18-24 h; for cell number change: measured here: cell count max response, cells fed with added oleic acid
Summary of the method: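 Laser-scanning cytometry quantifies lipid droplet accumulation (500–530 nm total intensity; droplet/cell object ratio) in oleic acid-fed (400 uM added) Drosophila S3 cells treated with a concentration series. 20 uM Triacsin C defined 100% inhibition.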

[1] = measured here: lipid fluorescence (Fed channel) AC50, cells fed with added oleic acid
[2] = measured here: cell number channel AC50, cells fed with added oleic acid

Row | SMILES | cell number change [%] | AC50 [1] | AC50 [2]
1 | CC(C)c1ccc(C2/C(=C(/O)c3ccccc3)C(=O)C(=O)N2CCCN2CCOCC2)cc1 (stereo not drawn) | 3.15 | 18.4 µM [falling, partial curve, poor fit] | 
2 | COc1ccc(N/N=C(C)/C(=N/O)C(=O)Nc2ccccc2)cc1 | 97.4 |  | 
3 | N#CC1=C(N)Oc2n[nH]c(-c3cccs3)c2C1c1ccncc1 (stereo not drawn) |  |  | 6.51 µM [falling, single point]
4 | COc1cc(NC(=O)c2ccccc2Cl)c2ncccc2c1 | -34.6 |  | 7.31 µM [falling, partial curve]
5 | CCOC(=O)C1(Cc2cccc(F)c2)CCN(Cc2ccon2)CC1 | 0.868 | 0.731 µM [falling, full curve, poor fit] | 
6 | COCCn1ccc2c(OCC(=O)Nc3cccc(NC(C)=O)c3)cccc2c1=O |  |  | 0.13 µM [rising, full curve, poor fit]
7 | CC1CCN(C(=S)NCCc2ccccc2)CC1 | 57.4 |  | 18.4 µM [rising, single point]
8 | CCN(CC(=O)Nc1ccc(OC)cc1)CC(=O)Nc1sc2c(c1C(=O)OC)CCCC2 | -1.16 | 0.00411 µM [rising, full curve, poor fit] | 
9 | O=C(c1ncc[nH]1)c1ccco1 | -1.08 | 32.6 µM [falling, single point] | 
10 | CCS(=O)(=O)Nc1cccc(C2=NN(S(=O)(=O)c3ccc(F)cc3)C(c3cccs3)C2)c1 (stereo not drawn) | 11.9 |  | 
11 | ONc1cccnc1-n1nc(C(F)(F)F)cc1C(F)(F)F | 2.39 | 29.1 µM [rising, single point] | 
12 | Cc1cnccc1CNC(=O)CC1C(=O)NCCN1CC(C)(C)C (stereo not drawn) | -21.6 | 4.11 µM [falling, partial curve, poor fit] | 
13 | COCCCN(C(=S)Nc1c(C)cc(C)cc1C)C(C)c1ccncc1 (stereo not drawn) | 37.1 | 0.651 µM [falling, single point] | 32.6 µM [rising, single point]
14 | Cc1ccc(OCc2cc(C(=O)NCCc3cccnc3)no2)cc1C | -5.32 | 0.13 µM [rising, full curve, poor fit] | 
15 | Cc1nn(-c2ccccc2)c(N)c1N=Nc1ccc(Cl)cc1 | -30.2 | 16.4 µM [falling, single point] | 13 µM [falling, partial curve]
16 | CCOC(=O)c1cc2[nH]c3ccccc3c2[n+](-c2ccc([N+](=O)[O-])cc2)c1C | 48.5 | 20.6 µM [rising, partial curve] | 11.6 µM [rising, partial curve]
17 | O=C1C=C(c2cccc(Cl)c2)C[C@@H](c2ccc3c(c2)OCO3)C1 | -8.04 |  | 
18 | Cc1ccc(C2(C)NC(=O)N(CC(=O)Nc3c(C)n(C)n(-c4ccccc4)c3=O)C2=O)cc1 (stereo not drawn) |  | 0.164 µM [rising, full curve, poor fit] | 0.13 µM [rising, full curve, poor fit]
19 | CC(C)(C)Nc1nc(N2CCCC2)nc(N2CCCC2)n1 |  | 0.00461 µM [falling, full curve, poor fit] | 
20 | CC(CNCC1CCCO1)COc1ccccc1 (stereo not drawn) | -16 | 25.9 µM [falling, partial curve] | 

Row | SMILES | cell number change [%] | AC50 [1] | AC50 [2]
21 | O=C(c1ccccc1-c1nc(-c2ccc(Cl)cc2)no1)N1CCCC1 | 43.8 | 0.206 µM [rising, full curve] | 2.31 µM [rising, partial curve]
22 | CCc1ccc(C(=O)/C=C/c2ccc([N+](=O)[O-])o2)cc1 |  | 20.6 µM [falling, partial curve] | 
23 | COc1ccc(C2CC(c3ccccc3)n3nc(NC(=O)c4cccs4)nc3N2)cc1 (stereo not drawn) | -13.7 | 29.1 µM [falling, single point] | 
24 | Cc1ccc(NS(=O)(=O)c2cccc(C(=O)NCC3(N(C)C)CCCCC3)c2)cc1 | -22.7 | 20.6 µM [falling, single point] | 
25 | Cc1ccc(NC(=O)C2COc3ccccc3O2)cc1C (stereo not drawn) | -9.97 |  | 
26 | CCCOc1ccc(C(=O)C(CCC(CNCC)C(=O)c2ccc(OCCC)cc2)CNCC)cc1 (stereo not drawn) | -45.4 | 1.64 µM [falling, partial curve] | 13 µM [falling, partial curve]
27 | CC1(C)Oc2ccc3ccc(=O)oc3c2/C(=C/Nc2cccc(O)c2)C1=O | -28.3 | 16.4 µM [falling, single point] | 
28 | COc1ccc(OCc2nnc(SCC(=O)NC3CCCCC3)o2)cc1 | -12.4 | 4.61 µM [rising, partial curve] | 
29 | COCCN(CC1CCCN(C2Cc3ccccc3C2)C1)C(=O)c1cccs1 (stereo not drawn) |  | 29.1 µM [rising, single point] | 
30 | S=C(NCc1ccc(Cl)cc1)Nc1ccncc1 | -38.1 |  | 
31 | COc1ccc(CN(C)C(=O)c2ccccc2OCc2c(C)noc2C)cc1OC | 8.15 | 6.51 µM [falling, single point] | 
32 | COCCNC(=O)c1ccc2c(=O)n(Cc3ccco3)c(SCC(=O)NC3CCCCC3)nc2c1 | 16.7 | 1.46 µM [rising, partial curve] | 0.366 µM [rising, full curve, poor fit]
33 | COc1cccc(C(=O)Nc2nc(C)cs2)c1 | 8.52 |  | 
34 | Cc1ccc(Sc2ncccc2C(=O)NCC(c2ccc(F)cc2)N2CCOCC2)cc1C (stereo not drawn) | 76.1 |  | 7.31 µM [rising, partial curve]
35 | O=C(O)c1cccnc1SC1CC(=O)N(c2cccc(C(F)(F)F)c2)C1=O (stereo not drawn) |  |  | 4.11 µM [falling, single point]
36 | Cn1ccnc1C(O)(c1nnc(-c2ccccc2)o1)C(F)(F)F (stereo not drawn) | 151 | 25.9 µM [rising, single point] | 29.1 µM [rising, single point]
37 | O=C(O)c1ccc(NC(CSCc2cccc(F)c2)C(=O)O)c([N+](=O)[O-])c1 (stereo not drawn) | -5.82 | 16.4 µM [falling, partial curve] | 
38 | Cc1sc2nc(C)n(/N=C/c3ccccc3)c(=O)c2c1C | -2.45 | 0.651 µM [rising, full curve, poor fit] | 
39 | Cc1ccc(N/C=C/C(=O)c2sc(-c3ccccc3)nc2C)cc1 | 19.5 | 0.291 µM [falling, partial curve, poor fit] | 
40 | Cc1cc(Nc2ccccc2)c2c([N+](=O)[O-])cc(C)c(C)c2n1 | -142 | 29.1 µM [falling, single point] | 29.1 µM [falling, single point]

A draw from above in order of heavy-atom count, largest number first.
Row | SMILES | cell number change [%] | AC50 [1] | AC50 [2]
29 | COCCN(CC1CCCN(C2Cc3ccccc3C2)C1)C(=O)c1cccs1 (stereo not drawn) |  | 29.1 µM [rising, single point] | 
37 | O=C(O)c1ccc(NC(CSCc2cccc(F)c2)C(=O)O)c([N+](=O)[O-])c1 (stereo not drawn) | -5.82 | 16.4 µM [falling, partial curve] | 
21 | O=C(c1ccccc1-c1nc(-c2ccc(Cl)cc2)no1)N1CCCC1 | 43.8 | 0.206 µM [rising, full curve] | 2.31 µM [rising, partial curve]

The listing continues:

Row | SMILES | cell number change [%] | AC50 [1] | AC50 [2]
41 | COc1cccc(NC(=O)CN2C(=O)CSc3ccc(S(=O)(=O)N4CCOCC4)cc32)c1 |  | 29.1 µM [rising, single point] | 
42 | COc1ccccc1C1(CC(=O)N2CCCCC2)CCOC(C(C)C)C1 (stereo not drawn) | 43.6 |  | 14.6 µM [rising, single point]
43 | CCOC(=O)c1c(NC(=O)COC)sc(C)c1C | -26.1 | 23.1 µM [falling, single point] | 
44 | COCC(=O)NC(C)c1nc2ccccc2[nH]1 (stereo not drawn) | -189 | 18.4 µM [falling, partial curve] | 25.9 µM [falling, partial curve]
45 | CCCC(c1nnnn1Cc1ccc(OC)cc1)N1CCC(C(N)=O)CC1 (stereo not drawn) | 2.63 | 6.51 µM [falling, single point] | 
46 | O=C(COC(=O)C1C2CC3OC(=O)C1C3C2)Nc1ccc(F)cc1 (stereo not drawn) | 9.4 | 6.51 µM [falling, single point] | 
47 | COc1ccc(N2CCN(/C(=N\S(=O)(=O)c3ccccc3)Nc3nc(C)cc(C)n3)CC2)cc1 | 1.76 | 3.26 µM [rising, partial curve, poor fit] | 
48 | Oc1ccccc1N1CCN(c2ccc3ccccc3n2)CC1 | -17.1 | 29.1 µM [rising, partial curve, poor fit] | 
49 | COc1ccc(Cl)cc1NC(=O)CN(C)C(=O)c1cn(-c2ccccc2)nc1-c1cccnc1 | -14 | 20.6 µM [falling, single point] | 0.517 µM [rising, full curve, poor fit]
50 | COc1ccccc1CNC(=O)CSc1nc(C)cs1 |  | 4.11 µM [falling, single point] | 
51 | CC1(C)COC(c2cc([N+](=O)[O-])ccc2Cl)=N1 | -20.4 |  | 0.0517 µM [falling, full curve, poor fit]
52 | COC(=O)c1cc(C)sc1NC(=O)CC1Nc2ccccc2NC1=O (stereo not drawn) |  | 18.4 µM [falling, single point] | 
53 | COc1ccc(C(CNC(=O)c2ccccc2SC)N(C)C)cc1 (stereo not drawn) | -3.14 |  | 0.00461 µM [falling, full curve, poor fit]
54 | Cc1ccc(S(=O)(=O)NCC(c2ccccc2)N2CCN(CCC#N)CC2)cc1 (stereo not drawn) | 11.7 | 29.1 µM [rising, single point] | 
55 | Cc1cc(C)n(C(=O)c2ccc(Cn3nc(C)c(Br)c3C)o2)n1 | -42.7 | 16.4 µM [falling, partial curve] | 13 µM [falling, partial curve]
56 | OC(CN1CCN(c2ccccc2Cl)CC1)c1ccccc1 (stereo not drawn) | 11.7 |  | 6.51 µM [rising, single point]
57 | N#CC1=C(N)N2C(=C(C#N)C1c1ccc(Br)cc1)Nc1ccccc12 (stereo not drawn) | -66.7 | 20.6 µM [falling, partial curve] | 14.6 µM [falling, single point]
58 | CCOc1ccc(NC(=O)CC(NCc2ccccn2)C(=O)O)cc1 (stereo not drawn) | -22 | 32.6 µM [falling, single point] | 

— PubChem BioAssay AID2685 (National Center for Advancing Translational Sciences (NCATS), 2010)
